Measurements reported in PubChem BioAssay AID652272 (Drosophila RNAi Screening Center, 2013)
The screen tested about 21,000 reagents; this is an unselected part of those that have a named target and a result. Of all reagents, 503 (2.4%) were called active. 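Raw plate light values, not normalised; calls rest on replicate z-scores that were not deposited; hits include reporter decreases as well as increases.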 A plus sign joins genes that one reagent is predicted to hit. The record does not give: the amount of reagent, the time to read-out.

Assay: 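Genes whose knock-down decreases or increases Hedgehog reporter output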 (primary screen)
System: Drosophila clone 8 (Cl8) cells
Knock-down reagent: long dsRNA against Drosophila genes
Detection: 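Plate reader light from a firefly reporter under a ptc promoter fragment that responds to Hedgehog, with Renilla light as transfection reference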
Scale: firefly Hh reporter signal: higher = more ptc reporter light; Renilla reference signal: higher = more Renilla control light
Active means: 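Called a hit if the two-replicate mean z-score lies below -2 or above +3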
Calls: active = hit: reporter lowered or raised; inactive = not a hit

| gene | DRSC id | firefly Hh reporter signal, replicate 1 | firefly Hh reporter signal, replicate 2 | firefly Hh reporter signal, replicate 3 | Renilla reference signal, replicate 1 | Renilla reference signal, replicate 2 | call |
| --- | --- | --- | --- | --- | --- | --- | --- |
| Or1a (Odorant receptor 1a) | DRSC18689 | 1.07e5 | 2.00e5 | – | 3664 | 8917 | inactive |
| SCOT (Succinyl-CoA:3-ketoacid CoA transferase) | DRSC08186 | 94554 | 79440 | – | 4348 | 3212 | inactive |
| CG15812 | DRSC08479 | 85285 | 36322 | – | 2168 | 1892 | inactive |
| B-H1 (BarH1) | DRSC19334 | 1.08e5 | 3.81e5 | 1.78e5 | 3360 | 3952 | inactive |
| CG40341 (retired record) | DRSC01767 | 1.44e5 | 2.85e5 | – | 4652 | 14044 | inactive |
| CG40341 (retired record) | DRSC03750 | 1.49e5 | 2.38e5 | – | 5239 | 14436 | active |
| CG2269 | DRSC06833 | 1.09e5 | 65387 | – | 4912 | 3323 | inactive |
| CG43116 | DRSC13737 | 44448 | 1.03e5 | – | 11127 | 2908 | inactive |
| Cyp303a1 (Cytochrome P450 303a1) | DRSC03300 | 1.01e5 | 47517 | – | 2730 | 4499 | inactive |
| GstE6 (Glutathione S transferase E6) | DRSC06676 | 1.53e5 | 64103 | – | 4003 | 4965 | inactive |
| Setx (Senataxin) | DRSC10859 | 48464 | 37716 | – | 5590 | 1416 | inactive |
| knrl (knirps-like) | DRSC11892 | 98285 | 73281 | – | 4553 | 3568 | inactive |
| Idh3g | DRSC15699 | 5.57e5 | 1.28e5 | – | 27344 | 3707 | inactive |
| MAN1 | DRSC04342 | 1.21e5 | 71654 | – | 4587 | 2867 | inactive |
| Mst85C | DRSC16746 | 80732 | 98352 | – | 2096 | 3217 | inactive |
| nSMase (neutral sphingomyelinase) | DRSC08237 | 1.12e5 | 63889 | – | 5533 | 3048 | inactive |
| Xpc (Xeroderma pigmentosum, complementation group C) | DRSC07654 | 1.02e5 | 73496 | – | 3936 | 2523 | inactive |
| CG11113 | DRSC06039 | 81360 | 49393 | – | 2008 | 4288 | inactive |
| RSG7 (Regulator of G-protein signaling 7) | DRSC20274 | 1.20e5 | 3.13e5 | – | 4300 | 12393 | inactive |
| Ndae1 (Na[+]-driven anion exchanger 1) | DRSC00975 | 4.49e5 | 1.81e5 | – | 21344 | 7603 | inactive |
| Ndae1 (Na[+]-driven anion exchanger 1) | DRSC02770 | 76471 | 57444 | – | 3888 | 2227 | inactive |
| r-l (rudimentary-like) | DRSC17042 | 1.66e5 | 4.48e5 | 1.21e5 | 6468 | 2773 | inactive |
| MESR3 (Misexpression suppressor of ras 3) | DRSC02463 | 59927 | 40309 | – | 1446 | 3706 | inactive |
| CG33725 | DRSC09183 | 1.12e5 | 1.77e5 | – | 3640 | 8176 | inactive |
| Rbfox1 (RNA-binding Fox protein 1) | DRSC09034 | 7.71e5 | 1.73e5 | 1.21e5 | 5825 | 4961 | inactive |
| Rbfox1 (RNA-binding Fox protein 1) | DRSC10157 | 33093 | 67121 | 2.34e5 | 5681 | 930 | inactive |
| Rbfox1 (RNA-binding Fox protein 1) | DRSC10320 | 4598 | 32356 | 38387 | 3288 | 3657 | inactive |
| mmd (mind-meld) | DRSC19672 | 60738 | 93522 | – | 1632 | 5114 | inactive |
| mmd (mind-meld) | DRSC19673 | 55771 | 1.49e5 | – | 1488 | 6632 | inactive |
| mmd (mind-meld) | DRSC20161 | 64672 | 1.78e5 | – | 2321 | 7664 | inactive |
| CG15721 | DRSC19688 | 90773 | 2.66e5 | – | 2448 | 11504 | inactive |
| Grx1t (Glutaredoxin 1, testis-specific) | DRSC04530 | 85139 | 46160 | – | 2877 | 4624 | inactive |
| CG33060 | DRSC09939 | 88668 | – | – | 6000 | 2791 | inactive |
| CG14086 | DRSC10090 | 1.16e5 | 1.17e5 | – | 4545 | 3024 | inactive |
| CG13022 | DRSC09902 | 79290 | – | – | 4384 | 2551 | inactive |
| Acp36DE (Accessory gland protein 36DE) | DRSC01860 | 1.18e5 | 68992 | – | 2688 | 5442 | inactive |
| CG14160 | DRSC10161 | 26038 | 42464 | 42993 | 4032 | 2541 | inactive |
| Tom70 (Translocase of outer membrane 70) | DRSC02990 | 58593 | 3.62e5 | 30822 | 1943 | 24005 | inactive |
| Nup50 (Nucleoporin 50kD) | DRSC06827 | 74646 | 47618 | – | 3306 | 2214 | inactive |
| Rad23 | DRSC17167 | 1.05e5 | 84818 | – | 2657 | 3152 | inactive |
| Eaat2 (Excitatory amino acid transporter 2) | DRSC00032 | 6.34e5 | 2.90e5 | – | 33147 | 11963 | inactive |
| Eaat2 (Excitatory amino acid transporter 2) | DRSC00749 | 1.12e5 | 1.15e5 | – | 4866 | 4985 | inactive |
| Arc2 (Activity-regulated cytoskeleton associated protein 2) | DRSC06436 | 77782 | 43672 | – | 1929 | 3011 | inactive |
| SrpRalpha (Signal recognition particle receptor alpha) | DRSC20251 | 1.33e5 | 72455 | – | 3082 | 2049 | inactive |
| Cpr65Eb (Cuticular protein 65Eb) | DRSC11026 | 54848 | 62954 | – | 5511 | 5203 | inactive |
| CG7406 | DRSC20042 | 62860 | 1.97e5 | – | 1639 | 9244 | inactive |
| CG42869 + Sfp93F | DRSC13505 | 6.79e5 | 1.23e5 | – | 4315 | 4315 | inactive |
| CG6701 | DRSC07007 | 72005 | 33280 | – | 2624 | 1575 | inactive |
| CG16890 | DRSC01890 | 63145 | 81648 | – | 2857 | 3507 | inactive |
| grnd (grindelwald) | DRSC02020 | 1.55e5 | 49092 | – | 3369 | 3227 | inactive |
| CG14834 | DRSC10204 | 35932 | 52352 | – | 4203 | 3888 | inactive |
| CG1146 | DRSC08189 | 88794 | 69378 | – | 4210 | 2930 | inactive |
| sesB (stress-sensitive B) | DRSC20371 | 84324 | 2.07e5 | – | 2139 | 6961 | inactive |
| Polr2I (RNA polymerase II subunit I) | DRSC16832 | 86648 | 66742 | – | 2514 | 1797 | inactive |
| CG4066 | DRSC15541 | 93850 | 1.01e5 | – | 3257 | 2802 | inactive |
| Ndg (Nidogen) | DRSC06223 | 59778 | 42141 | – | 2795 | 1980 | inactive |
| CG9759 | DRSC16558 | 1.99e5 | 85548 | – | 6871 | 1106 | inactive |

Not a retest: 4 of the entries above.
| gene | DRSC id | firefly Hh reporter signal, replicate 1 | firefly Hh reporter signal, replicate 2 | firefly Hh reporter signal, replicate 3 | Renilla reference signal, replicate 1 | Renilla reference signal, replicate 2 | call |
| --- | --- | --- | --- | --- | --- | --- | --- |
| CG14086 | DRSC10090 | 1.16e5 | 1.17e5 | – | 4545 | 3024 | inactive |
| CG13022 | DRSC09902 | 79290 | – | – | 4384 | 2551 | inactive |
| Acp36DE (Accessory gland protein 36DE) | DRSC01860 | 1.18e5 | 68992 | – | 2688 | 5442 | inactive |
| CG14160 | DRSC10161 | 26038 | 42464 | 42993 | 4032 | 2541 | inactive |
